PubChem BioAssay AID1224830 | NIAID, 2016
Shown is a random part of about 18,000 reagents. About 2,900 of them (16%) count as active. 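Calls are made per well; low scores hint the gene aids the LPS response, high scores that it dampens it.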 Repeated entries: four replicate wells of each siRNA pool. Reagent sequences are not shown.

- Assay: 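Genes whose knock-down alters the TNF-alpha reporter response to LPS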 (primary screen)
- Cells: human THP-1 monocytic leukaemia cells, TNF dual-luciferase reporter clone, PMA-differentiated to macrophage-like cells
- Reagents: siRNA pool against human genes, 50 nM
- Timing: LPS for 4 h, given about 3 days after siRNA transfection
- Conditions: bacterial LPS (TLR4 ligand), 10 ng/ml
- Measured: 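TNF firefly reporter luminescence divided by renilla, normalised to the plate median, then turned into a robust z-score for each replicate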
- Direction: TNF reporter robust z-score: higher = stronger TNF reporter response to LPS
- Hit rule: 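a well is active when its z-score exceeds 2.8 or falls below -1.5; control wells carry no call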

target gene	TNF reporter robust z-score	call
AGA	-0.79	inactive
AGA	0	inactive
AGA	1.08	inactive
AGA	0.96	inactive
H4C3	-0.89	inactive
H4C3	-0.92	inactive
H4C3	-0.82	inactive
H4C3	-0.79	inactive
GTF2E2	-0.7	inactive
GTF2E2	-0.03	inactive
GTF2E2	-0.45	inactive
GTF2E2	0.25	inactive
MUTYH	-0.76	inactive
MUTYH	-0.38	inactive
MUTYH	-0.72	inactive
MUTYH	-0.85	inactive
SPATA31H1	1.44	inactive
SPATA31H1	1.11	inactive
SPATA31H1	1.2	inactive
SPATA31H1	0.8	inactive
WWTR1	-0.47	inactive
WWTR1	0.52	inactive
WWTR1	0.21	inactive
WWTR1	0.88	inactive
PTPN22	-0.22	inactive
PTPN22	-1.04	inactive
PTPN22	-1.49	inactive
PTPN22	1.48	inactive
EXOC7	-0.58	inactive
EXOC7	-1.03	inactive
EXOC7	-1.28	inactive
EXOC7	-0.59	inactive
PEX13	-1.44	inactive
PEX13	-1.19	inactive
PEX13	-0.87	inactive
PEX13	-0.91	inactive
OR10Q1	-1.55	active
OR10Q1	-1.68	active
OR10Q1	-1.6	active
OR10Q1	-1.36	inactive
ATP13A1	0.18	inactive
ATP13A1	-0.63	inactive
ATP13A1	-0.95	inactive
ATP13A1	-0.17	inactive
PLEKHH3	0.83	inactive
PLEKHH3	-0.14	inactive
PLEKHH3	0.61	inactive
PLEKHH3	0.18	inactive
